Reference: article PMC10955226
Results are given in words; binding and its absence hold for the method and conditions named. In cells and extracts the contact can be indirect. Some results given as binding are weak or reduced against the parent protein; the word gives no strength. For some of these results: Where a sequence is shown, tags or fusion partners need not be part of it.

Sequences of proteins named here, by UniProt entry; tags and fusion partners are left off.
UniProt Q8IX03: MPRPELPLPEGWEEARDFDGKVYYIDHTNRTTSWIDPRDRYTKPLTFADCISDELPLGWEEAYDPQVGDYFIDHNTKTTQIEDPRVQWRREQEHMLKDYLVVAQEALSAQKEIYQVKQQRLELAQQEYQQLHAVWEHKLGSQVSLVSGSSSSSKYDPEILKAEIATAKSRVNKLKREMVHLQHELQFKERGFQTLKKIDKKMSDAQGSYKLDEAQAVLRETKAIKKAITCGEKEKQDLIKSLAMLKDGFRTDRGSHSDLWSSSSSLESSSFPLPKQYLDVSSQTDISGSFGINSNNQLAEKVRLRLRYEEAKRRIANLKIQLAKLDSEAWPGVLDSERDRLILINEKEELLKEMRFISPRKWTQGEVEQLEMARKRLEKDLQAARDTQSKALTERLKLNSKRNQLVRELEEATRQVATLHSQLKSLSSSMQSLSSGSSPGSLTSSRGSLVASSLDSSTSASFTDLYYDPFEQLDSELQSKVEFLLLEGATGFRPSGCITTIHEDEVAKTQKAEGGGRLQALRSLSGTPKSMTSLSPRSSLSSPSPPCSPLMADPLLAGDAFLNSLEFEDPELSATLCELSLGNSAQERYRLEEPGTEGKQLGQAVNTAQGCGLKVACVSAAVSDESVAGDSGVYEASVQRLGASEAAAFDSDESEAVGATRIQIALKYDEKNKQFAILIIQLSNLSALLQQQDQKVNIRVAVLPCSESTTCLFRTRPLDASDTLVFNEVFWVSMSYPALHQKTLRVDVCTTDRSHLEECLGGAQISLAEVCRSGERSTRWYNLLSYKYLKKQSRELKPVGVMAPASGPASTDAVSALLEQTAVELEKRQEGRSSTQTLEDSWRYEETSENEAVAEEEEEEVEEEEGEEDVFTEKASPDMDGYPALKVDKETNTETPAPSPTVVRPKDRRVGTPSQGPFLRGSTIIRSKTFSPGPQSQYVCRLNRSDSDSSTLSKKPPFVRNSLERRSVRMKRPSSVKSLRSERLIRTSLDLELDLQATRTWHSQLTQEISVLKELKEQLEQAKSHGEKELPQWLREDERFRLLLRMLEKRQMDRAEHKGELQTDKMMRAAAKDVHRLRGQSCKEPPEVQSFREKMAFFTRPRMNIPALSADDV

Experiments:
Flag-WWC1 [1] = target: Flag-WWC1 (UniProt Q8IX03); assay: co-IP; Flag-WWC1 transfected into Huh-7, SMCC-7721 with JCAD stably overexpressed, or AML12 cells; Flag-tag immunoprecipitated, JCAD immunoblotted
Flag-WWC1 [2] = target: Flag-WWC1 (UniProt Q8IX03); assay: co-IP; lysates of cells co-transfected with tagged JCAD and Flag-WWC1 (wild type or mutants) incubated with Flag magnetic beads at 4°C overnight, washed, boiled, immunoblotted; HEK293T named for Figure 8B, cells not named for Figures 8F and 8G

binding (Flag-WWC1 [1]) | binding (Flag-WWC1 [2]) | Binder
binds |  | JCAD, endogenous in AML12 cells (protein, UniProt Q5DTX6 1-1320) MYSVEDLLISHGYKPARDAAAPCEDKSERCRSTRTGPRAGQGLLNGYKDGATAHTHSRTSLGTGHVSNSENRISRPRGHREHQSTSRTPEARFLNQPSLAWSSQPQSGRDDIYWSRGRQEGSGSLCPRDWKELESRGMAQAYSLPVHVRENLWEVAGRTEHVMKNAIWEEELRMQDMSLESWKKPRELGRQASDGDGRKRPQEKFEGLYPFVHGEHTSQNRKKSQSLPRALSPKSLNFTEIPVPLHDGHITGVPKVPPYPPSFPSPSEPMRNLEKASSSGPFPRPKFGKPLKTPCYSSHSQPRGEGGFQDHQHRDPRGSYPTRSKDPSHELGMLDPGLEPPVYVPPPSYRSPPQHIPNPYLEDPVPRHVSSNQSQQQVPEKPETSCPLPSGSLAARDLYDAMPGSPPQGLPPQPYPIATHGGSIQYIPFDDPRIRHIKLAQPPEFYEEAKLDDTSYNPGLLTTQEPAIGKRQYDDAPSVPRGPTPSPVNEQSSAFVHSSPRWLQGQLPLGIGPGGFHGQTEHHVMGGLTTNVTDIKAEGHASSPQPQSEGTCKTYTKLRKFETGVQSKKSSKKKSNATIFCLVSIPVKSESLVLATDTNNNDFKLVADKTRGLCQGSALQEQSLLSMSSTDLELQALMGSMAWRRTSPRQGLRESEDGQIDDPRILHLIKPKELQASSPWPGHQYRDQQTQTSFHEDSKSSQLLPATKPGEASNVAPTPTCPDTTASEVCLHTALAFSDQNQKPSVPHLQGQTSLSPSRNSAFSRTSSAINQASMSKGTSDQLPGANPVPKPEVVKGESTTGQCNSTQLFGQFLLKPVSRRPWDLISQLESFNKELQEEEESHGGSGSEDSEAEQPEDCADSRTKSWALQGTRTAQQPAGLALENVASPDRRLNDSQSWNEEPKPGHSSVHPQSLGPSQEEGSRGVPVQWADGSLTAEQKSQEDLNGMCERDFSPRPVSRIAPIDTKAAPLYCLSEPRGSQELTKFGDAVGSVQLGRETPTQVGNGGDTEVLPCVLLPLADKYRGHSTPDFRSLELTLGQEQNAYKLECLDLENTVEVLPSESLQERAERILGIEVAVESLLPSARRTEQSQLPEPDASACNPSSSREDSSHSLALPVGPKVATDAFYGRRKCGWTESPLFVGERAPQASICSDVDGFPTSQATSPEPGKKDEEAKAPFKSTLFHFMEKSTNVVGPEKRLRNPSKVVENLQEKLVSPPKKADSVHLIRMREVNSLSQMRCLSSKSADSVEEPDPLKVIKSSAWLSEGLTSLGGKDEAWQAGHLPSVSQNENGHPEVPRDKMSDQDLWCADSYDPSRVERV
 | binds | HA-JCAD (junctional protein-associated with coronary artery disease) (protein, UniProt Q9P266 1-1359) MYSVEDLLISHGYKLSRDPPASREDNPKGRQAARTGTRAGQGLQNGHEDGPAALAHRKTSAGKGHVSDSESRRSTPRGHGEPQSTSASRTSEAGFCNQPPSAWSSHPPTGNDQAYRRRGRQEARSQKPREHENLEARGMAQAHSLPVHVREGPWEVGGRSEHVMKKPVWEEELRMSGPAKWQNVSLESWNQPRKLGRQMSDGDGERLFQDLYPFIQGEHVLNSQNKGKSRSLPRVLSPESLSCTEIPIPLNERHSPKMPPYPPTCAPNLDSTRNSEKSGCSAPFPRPKFGRPLKPPSYSSHQQSRGGADSSDSQDSQQMDAYVPRHELCLSDPGLEPPVYVPPPSYRSPPQNIPNPYLEDTVPINVCGGHSQQQSPTEKAGASGQPPSGPPGTGNEYGVSPRLPQGLPAHPRPVTAYDGFVQYIPFDDPRLRHFKLAQPQGFCEDIKLDDKSYNSSPVTAQEPAHGGMQPDGAIWNPQSLIPPSGDERGLVLADSSPRWLWGQPPGDGENSGLPNQRDRCVARGQWPDVRGSQHGHTGRQVSSPYSQGESTCETQTKLKKFQTGTRTKKSSKKKMNETIFCLVSIPVKSESHLPDRDMDNNDLKPSADQKNGSDKSPALQEQSLLSMSSTDLELQALTGSMGGRTEFQKQDLGEPEEDRQTNDLSFIHLTKHRELKHSGSWPGHRYRDQQTQTSFSEEPQSSQLLPGAKLGGPSRAALSPKCSDPAASEAQTHTAFPTGDHKQRPSARNLKGHRSLSPSSNSAFSRTSLSVDQAPTPKAGRSQPCVDVHGLGAHPGPKREVVKGEPTGPCNSKQLFGQFLLKPVSRRPWDLISQLESFNKELQEEEESSSSSSSSSSSSEESEAEPQQENRAHCRQEDVGFRGNSPEMRVEPQPRMWVPESPVCRSGRGESKSESWSEELQPGHPRAWPPSPGRFRVEEGGGAPFCSADGSTSAEKRHLEVSNGMDELAGSPFPVTRMSSRSSDAKPLPASYPAEPREPQESPKITSAFSSVKPSEAVPRKFDSGGERGAGLPLSLSNKNRGLSAPDLRSVGLTPGQEQGASELEGSLGEASTIEIPPGESLQARAARILGIEVAVESLLPGIRRAGQNQPAEPDASACTPESPQEELLSRPAPADVPRVSTDAFYGRRKCGWTKSPLFVGDRDSARRAPQAFEHSDVDGVVTSTDPVPEPEPSPLESKFFEQKDVETKPPFRSTLFHFVERTPSVAGSEKRLRSPSKVIESLQEKLASPPRRADPDRLMRMKEVSSVSRMRVLSFRNADSQEDAEELKATTRGQAGLPGGLVSPGSGDRAQRLGHSLSVSKDSISREEKEHPAAQKEKSMDQDFWCPDSYDPSRVERV
binds |  | JCAD, endogenous in Huh-7 cells (protein, UniProt Q9P266 1-1359) MYSVEDLLISHGYKLSRDPPASREDNPKGRQAARTGTRAGQGLQNGHEDGPAALAHRKTSAGKGHVSDSESRRSTPRGHGEPQSTSASRTSEAGFCNQPPSAWSSHPPTGNDQAYRRRGRQEARSQKPREHENLEARGMAQAHSLPVHVREGPWEVGGRSEHVMKKPVWEEELRMSGPAKWQNVSLESWNQPRKLGRQMSDGDGERLFQDLYPFIQGEHVLNSQNKGKSRSLPRVLSPESLSCTEIPIPLNERHSPKMPPYPPTCAPNLDSTRNSEKSGCSAPFPRPKFGRPLKPPSYSSHQQSRGGADSSDSQDSQQMDAYVPRHELCLSDPGLEPPVYVPPPSYRSPPQNIPNPYLEDTVPINVCGGHSQQQSPTEKAGASGQPPSGPPGTGNEYGVSPRLPQGLPAHPRPVTAYDGFVQYIPFDDPRLRHFKLAQPQGFCEDIKLDDKSYNSSPVTAQEPAHGGMQPDGAIWNPQSLIPPSGDERGLVLADSSPRWLWGQPPGDGENSGLPNQRDRCVARGQWPDVRGSQHGHTGRQVSSPYSQGESTCETQTKLKKFQTGTRTKKSSKKKMNETIFCLVSIPVKSESHLPDRDMDNNDLKPSADQKNGSDKSPALQEQSLLSMSSTDLELQALTGSMGGRTEFQKQDLGEPEEDRQTNDLSFIHLTKHRELKHSGSWPGHRYRDQQTQTSFSEEPQSSQLLPGAKLGGPSRAALSPKCSDPAASEAQTHTAFPTGDHKQRPSARNLKGHRSLSPSSNSAFSRTSLSVDQAPTPKAGRSQPCVDVHGLGAHPGPKREVVKGEPTGPCNSKQLFGQFLLKPVSRRPWDLISQLESFNKELQEEEESSSSSSSSSSSSEESEAEPQQENRAHCRQEDVGFRGNSPEMRVEPQPRMWVPESPVCRSGRGESKSESWSEELQPGHPRAWPPSPGRFRVEEGGGAPFCSADGSTSAEKRHLEVSNGMDELAGSPFPVTRMSSRSSDAKPLPASYPAEPREPQESPKITSAFSSVKPSEAVPRKFDSGGERGAGLPLSLSNKNRGLSAPDLRSVGLTPGQEQGASELEGSLGEASTIEIPPGESLQARAARILGIEVAVESLLPGIRRAGQNQPAEPDASACTPESPQEELLSRPAPADVPRVSTDAFYGRRKCGWTKSPLFVGDRDSARRAPQAFEHSDVDGVVTSTDPVPEPEPSPLESKFFEQKDVETKPPFRSTLFHFVERTPSVAGSEKRLRSPSKVIESLQEKLASPPRRADPDRLMRMKEVSSVSRMRVLSFRNADSQEDAEELKATTRGQAGLPGGLVSPGSGDRAQRLGHSLSVSKDSISREEKEHPAAQKEKSMDQDFWCPDSYDPSRVERV
binds |  | JCAD, stably overexpressed in SMCC-7721 cells (protein, UniProt Q9P266 1-1359) MYSVEDLLISHGYKLSRDPPASREDNPKGRQAARTGTRAGQGLQNGHEDGPAALAHRKTSAGKGHVSDSESRRSTPRGHGEPQSTSASRTSEAGFCNQPPSAWSSHPPTGNDQAYRRRGRQEARSQKPREHENLEARGMAQAHSLPVHVREGPWEVGGRSEHVMKKPVWEEELRMSGPAKWQNVSLESWNQPRKLGRQMSDGDGERLFQDLYPFIQGEHVLNSQNKGKSRSLPRVLSPESLSCTEIPIPLNERHSPKMPPYPPTCAPNLDSTRNSEKSGCSAPFPRPKFGRPLKPPSYSSHQQSRGGADSSDSQDSQQMDAYVPRHELCLSDPGLEPPVYVPPPSYRSPPQNIPNPYLEDTVPINVCGGHSQQQSPTEKAGASGQPPSGPPGTGNEYGVSPRLPQGLPAHPRPVTAYDGFVQYIPFDDPRLRHFKLAQPQGFCEDIKLDDKSYNSSPVTAQEPAHGGMQPDGAIWNPQSLIPPSGDERGLVLADSSPRWLWGQPPGDGENSGLPNQRDRCVARGQWPDVRGSQHGHTGRQVSSPYSQGESTCETQTKLKKFQTGTRTKKSSKKKMNETIFCLVSIPVKSESHLPDRDMDNNDLKPSADQKNGSDKSPALQEQSLLSMSSTDLELQALTGSMGGRTEFQKQDLGEPEEDRQTNDLSFIHLTKHRELKHSGSWPGHRYRDQQTQTSFSEEPQSSQLLPGAKLGGPSRAALSPKCSDPAASEAQTHTAFPTGDHKQRPSARNLKGHRSLSPSSNSAFSRTSLSVDQAPTPKAGRSQPCVDVHGLGAHPGPKREVVKGEPTGPCNSKQLFGQFLLKPVSRRPWDLISQLESFNKELQEEEESSSSSSSSSSSSEESEAEPQQENRAHCRQEDVGFRGNSPEMRVEPQPRMWVPESPVCRSGRGESKSESWSEELQPGHPRAWPPSPGRFRVEEGGGAPFCSADGSTSAEKRHLEVSNGMDELAGSPFPVTRMSSRSSDAKPLPASYPAEPREPQESPKITSAFSSVKPSEAVPRKFDSGGERGAGLPLSLSNKNRGLSAPDLRSVGLTPGQEQGASELEGSLGEASTIEIPPGESLQARAARILGIEVAVESLLPGIRRAGQNQPAEPDASACTPESPQEELLSRPAPADVPRVSTDAFYGRRKCGWTKSPLFVGDRDSARRAPQAFEHSDVDGVVTSTDPVPEPEPSPLESKFFEQKDVETKPPFRSTLFHFVERTPSVAGSEKRLRSPSKVIESLQEKLASPPRRADPDRLMRMKEVSSVSRMRVLSFRNADSQEDAEELKATTRGQAGLPGGLVSPGSGDRAQRLGHSLSVSKDSISREEKEHPAAQKEKSMDQDFWCPDSYDPSRVERV
